## Primary screen of a compound library

The filed quantity is “Percent Effect” (%).
How 0% and 100% were set is not recorded. Most values in the screen are low, and negative values occur.
The compounds are a random part of those screened.
A dash means the value is not listed here; it may have been measured.

A: 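Whole-cell assay for inhibitors of Mycobacterium tuberculosis growth, labelled Cornell in the record; the read-out is not stated. The concentration is filed as 10 mM, unlikely as a test dose, so the dose is not known. The record gives no direction; compounds strong in two other growth screens of this library score well above the rest, so higher reads as stronger inhibition. Size under these conditions: about 53,000 compounds, about 900 of them at 50% or above in at least one test.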
B: 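Assay on Mycobacterium tuberculosis, filed only as a heat shock assay from Cornell; the read-out is not stated. The concentration is filed as 10 mM, unlikely as a test dose, so the dose is not known. Direction is inferred from retests: higher values go with stronger inhibition. Of about 69,000 compounds tested this way, about 930 (1.4%) reached 50% or more in at least one test.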

compound | A | B
[H][C@@]12CS(=O)(=O)C[C@]1([H])N(C(=O)c1cccc(C)n1)CCN2CCC | - | -15.45
CN(CC1COc2ccccc2O1)C(=O)CCn1cncn1 (stereo not shown) | - | -2.071
COCCN1CCCC2(CCN(c3nccnc3N(C)C)C2)C1=O (stereo not shown) | - | -36.13
Cc1ccc(NC(=O)N2CC[C@@H](O)C2)c(-c2nc(C3CC3)no2)c1 | 19.79 | -2.133
COCC(=O)N1CCN(C(=O)CCc2ccsc2)CC1 | 26.22 | 6.184
Cn1nnnc1SCCNC(=O)c1c[nH]nc1C1CCCCC1 | 8.854 | 13.29
CC[C@@]1(O)CCN(c2ncc(Cl)cc2F)C[C@H]1O | -2.687 | 0.05
CCc1nc(NCC(=O)N2CCOCC2)c2c(n1)c(C)nn2CC | - | -5.833
Cc1nc(CN2CCCC(N(C)c3ccc(C#N)cn3)C2)no1 (stereo not shown) | 15.75 | -30.96
Cc1ncncc1C(=O)N1CCC(O)(CN(C)Cc2ccc(F)cc2)C1 (stereo not shown) | 19.74 | 6.149
COCc1nc(CNC2CCSCC2)no1 | 29.4 | -0.9173
Fc1cc(CN2CCOC3(CCOCC3)C2)ccc1OC(F)F | 24.16 | 0.3282
CN(C)C(=O)Cn1ccc2cc(NC(=O)N3CCSCC3)ccc21 | - | 18.24
[H][C@@]12CN(Cc3cccs3)C[C@H](C(=O)Nc3cccnc3)[C@]1([H])CCO2 | -25.03 | 0.0926
CCN1CCC(=O)N(C)Cc2cc(F)ccc21 | 2.013 | 13.57
CC(C)N(CCC#N)C(=O)c1cnc(-c2ccc3c(c2)OCO3)s1 | 6.783 | -9.557
CN1CCCc2ccc(S(=O)(=O)NC(=O)C3CC=CC3)cc21 | 3.37 | 9.464
COC1(CNC(=O)NCCc2ccccc2)CCSC1 (stereo not shown) | 13.52 | -16.56
CC(=O)NCC(=O)N(CCc1ccccc1)C1CCOC1 (stereo not shown) | 21.85 | -2.01
CC(C)(CO)CCCNC(=O)N1CCc2c(F)ccc(F)c2C1 | 18.41 | 4.871
CC(=O)NCCCc1ncnn1-c1cccc(Cl)c1 | -1.734 | -13.06
Cc1c(C(=O)OCC2CC(=O)N(c3ccccc3)C2)cnn1C(C)C (stereo not shown) | -7.871 | -7.12
COc1cc(C(=O)N2CCCC(CNS(C)(=O)=O)C2)ccc1C (stereo not shown) | - | -17.95
CNC(=O)CCc1cc(C)nc(C2CCN(c3cnccn3)CC2)c1 | 0.9564 | -2.579
Cc1nc(C2CCCN(S(C)(=O)=O)C2)sc1Br (stereo not shown) | 16.22 | 2.635
CC(C)(C)NC(=O)NC(=O)CNc1c(F)cccc1N1CCCC1 | 31.08 | -1.566
O=C(O)C(F)(F)F.[H][C@@]12CCCO[C@]1([H])[C@@H](OC)CN2C(=O)c1ccccn1 | -12.86 | 0.07759
CC(C)(C)c1ccn(C2(C(=O)O)CCN(c3ncccc3C#N)CC2)n1 | 24.96 | 3.471
O=C(O)C(F)(F)F.[H][C@@]12COC[C@]1(CNC(=O)c1ccccc1)CN(Cc1ccco1)C2 | -4.278 | -18.08
O=C(C1CCOC1)N1CCC2(CC1)Cc1ccccc1CNC2=O (stereo not shown) | -5.575 | -5.982
O=C(O)C(F)(F)F.O[C@@H]1CCN(CC2CCOC2)[C@H]1Cc1ccccc1 (stereo partly shown) | 25.8 | 5.363
Cc1cccc(-c2nccnc2C2CCN(C)CC2)c1C | -15.39 | -10.15
O=C(O)C(F)(F)F.O=C(c1ccccc1F)N1CCCn2c(CN3CCCCC3)nnc2C1 | 12.05 | 1.37
O=S(=O)(N(Cc1ccccn1)C1CC1)N1CCCC1c1ccco1 (stereo not shown) | 12.71 | -3.514
CC(C)[C@]1(O)CN(C(=O)COCC(N)=O)C[C@H]1C | -30.51 | -18.51
Cc1nccc(-c2cccc(NCC(=O)N3CCCCCCC3)c2)n1 | 7.873 | -9.84
COCCOc1ccc(CNc2nc3ccccc3o2)cn1 | 11.82 | -8.042
Cc1nnc(CN(Cc2cccc(Br)c2)C2CC2)o1 | 22.14 | -0.8005
N#Cc1ccc(CN2CCCC2Cn2cccn2)cc1 (stereo not shown) | - | -11.1
CN(Cc1ncnn1C)C(=O)CCn1ccc2ccccc21 | 15.32 | -10.38
CN(C)[C@@H]1CCN(c2ncc(F)cn2)[C@H]1Cc1ccccc1.O=C(O)C(F)(F)F.O=C(O)C(F)(F)F | 15.86 | -20.56
CC(C)C(C(=O)N1CCC(N(C)c2cccnn2)CC1)n1cncn1 (stereo not shown) | 6.492 | 9.721

Some entries from above, unchanged:

compound,A,B
CN(C)[C@@H]1CCN(c2ncc(F)cn2)[C@H]1Cc1ccccc1.O=C(O)C(F)(F)F.O=C(O)C(F)(F)F,15.86,-20.56
Cc1nc(C2CCCN(S(C)(=O)=O)C2)sc1Br (stereo not shown),16.22,2.635
O=C(C1CCOC1)N1CCC2(CC1)Cc1ccccc1CNC2=O (stereo not shown),-5.575,-5.982
CCc1nc(NCC(=O)N2CCOCC2)c2c(n1)c(C)nn2CC,-,-5.833
COCCOc1ccc(CNc2nc3ccccc3o2)cn1,11.82,-8.042

From ChEMBL document CHEMBL3988442, “University of Dundee, Small-Polar-MMV Screening Library” (2021).